PubChem BioAssay AID1508597, Cure First | 2020

Purpose: 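Survival screen with siRNA in ovarian cancer cells derived from patients, with or without rucaparib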 (primary screen)
System: human ovarian carcinoma lines grown from tumours: OCI-P5x (papillary serous) and OCI-C5x (clear cell)
Knock-down reagent: siRNA pool against human genes, 1.25 pmol siRNA per well
Duration: 72 h or 96 h, depending on the cell culture
Treatment: rucaparib 20 µM (about IC30) or vehicle, present until read-out
Rucaparib or vehicle: Rucaparib
Cell line: OCI-C5x (clear cell)
Read-out: 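ATP luminescence measured at 72 or 96 h according to the culture, then normalised and expressed as percent viability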
Direction: viability, normalised: higher = more viable cells remaining
Rule for the call: 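a well counts as a hit if its normalised viability is under 80 percent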
Calls: active = viability under 80%; inactive = viability 80% or more
Shown is an unselected part of the about 2,100 reagents, in one setting of the screen. 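Calls flag viability under 80% in either arm, not effects specific to rucaparib; the reference for percent is not stated.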 Unmarked entries are inactive. No sequences are given here. The record does not give: the 100% reference.

| gene | technical replicate | viability, normalised (%) |
| --- | --- | --- |
| NABP2 (nucleic acid binding protein 2) | 1 | 43.5 (active) |
| NABP2 (nucleic acid binding protein 2) | 2 | 46.4 (active) |
| NABP2 (nucleic acid binding protein 2) | 3 | 53.8 (active) |
| MMS22L (MMS22 like, DNA repair protein) | 1 | 68.8 (active) |
| MMS22L (MMS22 like, DNA repair protein) | 2 | 53.1 (active) |
| MMS22L (MMS22 like, DNA repair protein) | 3 | 60.4 (active) |
| NEK8 (NIMA related kinase 8) | 1 | 54.3 (active) |
| NEK8 (NIMA related kinase 8) | 2 | 60.6 (active) |
| NEK8 (NIMA related kinase 8) | 3 | 47.6 (active) |
| PXK (PX domain containing serine/threonine kinase like) | 1 | 74.9 (active) |
| PXK (PX domain containing serine/threonine kinase like) | 2 | 62.2 (active) |
| PXK (PX domain containing serine/threonine kinase like) | 3 | 75.4 (active) |
| CSNK1G2 (casein kinase 1 gamma 2) | 1 | 69.3 (active) |
| CSNK1G2 (casein kinase 1 gamma 2) | 2 | 67.1 (active) |
| CSNK1G2 (casein kinase 1 gamma 2) | 3 | 77.8 (active) |
| PMS2P4 | 1 | 87.3 |
| PMS2P4 | 2 | 80.6 |
| PMS2P4 | 3 | 62.8 (active) |
| MKNK1 (MAPK interacting serine/threonine kinase 1) | 1 | 73.4 (active) |
| MKNK1 (MAPK interacting serine/threonine kinase 1) | 2 | 73.2 (active) |
| MKNK1 (MAPK interacting serine/threonine kinase 1) | 3 | 73 (active) |
| ACVRL1 (activin A receptor like type 1) | 1 | 50 (active) |
| ACVRL1 (activin A receptor like type 1) | 2 | 51.5 (active) |
| ACVRL1 (activin A receptor like type 1) | 3 | 48.5 (active) |
| PMS1 (PMS1 homolog 1, mismatch repair system component) | 1 | 49.2 (active) |
| PMS1 (PMS1 homolog 1, mismatch repair system component) | 2 | 63.8 (active) |
| PMS1 (PMS1 homolog 1, mismatch repair system component) | 3 | 60.4 (active) |
| KMT2C (lysine methyltransferase 2C) | 1 | 50.5 (active) |
| KMT2C (lysine methyltransferase 2C) | 2 | 49.2 (active) |
| KMT2C (lysine methyltransferase 2C) | 3 | 33.4 (active) |
| PDE4B (phosphodiesterase 4B) | 1 | 78.2 (active) |
| PDE4B (phosphodiesterase 4B) | 2 | 72 (active) |
| PDE4B (phosphodiesterase 4B) | 3 | 63.5 (active) |
| DHX37 (DEAH-box helicase 37) | 1 | 62.9 (active) |
| DHX37 (DEAH-box helicase 37) | 2 | 47.1 (active) |
| DHX37 (DEAH-box helicase 37) | 3 | 44.5 (active) |
| MYOD1 (myogenic differentiation 1) | 1 | 62.6 (active) |
| MYOD1 (myogenic differentiation 1) | 2 | 43 (active) |
| MYOD1 (myogenic differentiation 1) | 3 | 38.5 (active) |
| PANK3 (pantothenate kinase 3) | 1 | 41.7 (active) |
| PANK3 (pantothenate kinase 3) | 2 | 59.4 (active) |
| PANK3 (pantothenate kinase 3) | 3 | 47.7 (active) |
| JUN (Jun proto-oncogene, AP-1 transcription factor subunit) | 1 | 45.9 (active) |
| JUN (Jun proto-oncogene, AP-1 transcription factor subunit) | 2 | 43.5 (active) |
| JUN (Jun proto-oncogene, AP-1 transcription factor subunit) | 3 | 42.6 (active) |
| DDX50 (DExD-box helicase 50) | 1 | 42.9 (active) |
| DDX50 (DExD-box helicase 50) | 2 | 35.7 (active) |
| DDX50 (DExD-box helicase 50) | 3 | 31.2 (active) |
| CCK (cholecystokinin) | 1 | 54.7 (active) |
| CCK (cholecystokinin) | 2 | 46.9 (active) |
| CCK (cholecystokinin) | 3 | 54.4 (active) |
| RRP8 (ribosomal RNA processing 8) | 1 | 49 (active) |
| RRP8 (ribosomal RNA processing 8) | 2 | 52.3 (active) |
| RRP8 (ribosomal RNA processing 8) | 3 | 48.3 (active) |
| STK17B (serine/threonine kinase 17b) | 1 | 97.2 |
| STK17B (serine/threonine kinase 17b) | 2 | 80.1 |
| STK17B (serine/threonine kinase 17b) | 3 | 92 |
